Measurements as given in PubChem BioAssay AID1671190 (National Center for Advancing Translational Sciences (NCATS), 2021).
Among all 580,000 compounds or so, about 6,100 (1.1%) were called active. Inconclusive results, whose numbers are uncertain, are shown with a selection of clear calls. Calls come from the whole dose curve; as a rule, active = well fitted inhibition curve with a large enough effect; inconclusive = small, poorly fitted or top-dose-only effect, or another doubt; inactive = no such curve, though single readings can be large or run the other way. Potencies of inconclusive entries are doubtful fits and often do not repeat.

Sequences of proteins named here, by UniProt entry; tags and fusion partners are left off. A change or cut given only in a name is not applied to a line headed by its entry.
UniProt P18054: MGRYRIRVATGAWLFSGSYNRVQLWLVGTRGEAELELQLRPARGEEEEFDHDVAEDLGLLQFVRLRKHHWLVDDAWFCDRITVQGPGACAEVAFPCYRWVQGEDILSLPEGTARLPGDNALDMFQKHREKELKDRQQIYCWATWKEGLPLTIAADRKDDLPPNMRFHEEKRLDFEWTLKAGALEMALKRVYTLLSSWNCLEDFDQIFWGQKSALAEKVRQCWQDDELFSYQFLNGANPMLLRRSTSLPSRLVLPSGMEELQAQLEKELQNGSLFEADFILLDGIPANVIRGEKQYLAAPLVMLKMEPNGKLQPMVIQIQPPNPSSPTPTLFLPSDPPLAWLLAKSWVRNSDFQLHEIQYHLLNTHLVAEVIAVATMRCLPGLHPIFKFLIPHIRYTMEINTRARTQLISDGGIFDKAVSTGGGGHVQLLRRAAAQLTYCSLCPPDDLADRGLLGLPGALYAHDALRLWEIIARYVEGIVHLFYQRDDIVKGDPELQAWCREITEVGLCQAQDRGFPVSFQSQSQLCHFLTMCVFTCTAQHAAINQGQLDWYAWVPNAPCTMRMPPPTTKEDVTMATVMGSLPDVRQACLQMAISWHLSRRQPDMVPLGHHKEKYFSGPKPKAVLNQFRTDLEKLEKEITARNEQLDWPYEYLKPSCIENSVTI

Molecular target: Polyunsaturated fatty acid lipoxygenase ALOX12 (Homo sapiens) (UniProt P18054)
Assay: Primary qHTS assay for inhibitors of human arachidonate 12S-lipoxygenase (ALOX12): Round 2
Details: purified 12hLO, xylenol orange hydroperoxide absorbance; activity change, negative = inhibition: at 108 µM (top of the series) unless noted
Outline: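 Purified human 12hLO (150 nM final) in 25 mM Hepes, 0.01% Triton X-100, pH 7.0 was preincubated 15 min at room temperature with compound. Then 40 uM arachidonic acid was added, 30 min. Hydroperoxide was read by Fe-XO absorbance ratio 573/405 nm.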
% is set by controls: 0 for no effect and ±100 for the full control effect; potency is the fitted concentration of half-maximal effect.

Row | SMILES | Potency | activity change, negative = inhibition
1 | O=C(COC(=O)c1ccc(S(=O)(=O)N2CCCC2)cc1)Nc1ccc(Cl)cn1 | inconclusive: 89.1 µM [inhibitor, single point] | –
2 | CC1CCN(S(=O)(=O)c2cccc(C(=O)Nc3nncs3)c2)CC1 | inconclusive: 39.8 µM [inhibitor, partial curve, poor fit] | –
3 | CN(Cc1ccccc1)C(=O)/C=C/c1cccs1 | inconclusive: 35.5 µM [inhibitor, partial curve, poor fit] | –
4 | COC1CCCN(c2cc(-c3ccsc3)nc3c(C)noc23)C1 (stereo not given) | – | inactive: -22.3% [at 176 µM]
5 | COC(=O)CN(Cc1ccco1)S(=O)(=O)c1ccccc1 | inconclusive: 44.7 µM [inhibitor, partial curve, poor fit] | –
6 | COC(=O)C(C)Oc1ccc2c(C)c(-c3ccc(OC)cc3)c(=O)oc2c1 (stereo not given) | – | inactive: 8.12%
7 | CCn1cc2nc(SCC(=O)Nc3ccc(OC)c(OC)c3)n(Cc3ccc(Cl)cc3)c(=O)c2n1 | – | inactive: -24.7%
8 | COc1ccc(C(=O)Nc2ccnn2C2CCN(C(=O)CCC(F)(F)F)CC2)cc1 | inconclusive: 28.2 µM [inhibitor, partial curve, poor fit] | –
9 | Cc1cc(/C=C(\C#N)c2nc3ccccc3[nH]2)c(C)n1C | inconclusive: 11.2 µM [inhibitor, partial curve, poor fit] | –
10 | Cc1cc(NC(=O)CSc2ccc3c(c2)OCCO3)no1 | inconclusive: 28.2 µM [inhibitor, single point] | –
11 | Cc1cccc(S(=O)(=O)N2CN(Cc3ccco3)c3nc4ccccc4nc32)c1 | inconclusive: 28.2 µM [inhibitor, single point] | –
12 | CC(=O)c1cccc(NC(=O)Cn2c(=O)n(-c3ccc(F)cc3)c(=O)c3c2cc(C)n3C)c1 | inconclusive: 70.8 µM [inhibitor, partial curve, poor fit] | –
13 | c1csc(CNCc2ccncc2)c1 | inconclusive: 15.8 µM [inhibitor, full curve, poor fit] | –
14 | CCNC(=O)NC(=O)COC(=O)c1cc(-c2ccc(C)o2)nc2ccccc12 | active: 3.16 µM | –
15 | CN(Cc1ccc(C#CCCO)cc1)CC1CCCN(CCc2ccc(Cl)cc2)C1 (stereo not given) | inconclusive: 12.6 µM [inhibitor, full curve] | –
16 | Cc1cc(C)nc(SC2CC(=O)N(c3ccc(C)c(C)c3)C2=O)n1 (stereo not given) | – | inactive: 10.2%
17 | O=C(O)c1ccc2nc3c(nc2c1)-c1ccccc1C3=O | inconclusive: 5.01 µM [inhibitor, full curve, poor fit] | –
18 | COc1ccccc1CNC(=O)c1cccc(-c2ccc(C)c3ccccc23)n1 | inconclusive: 44.7 µM [inhibitor, partial curve, poor fit] | –
19 | COC(=O)[C@@H](Cc1cccnc1)NC(=O)[C@H]1CN(C(C)=O)CCN1C(=O)N1CCOCC1 | inconclusive: 25.1 µM [inhibitor, partial curve, poor fit] | –
20 | Cc1ccc(NC2=NCC(=O)N2Cc2ccc3c(c2)OCO3)cc1 | inconclusive: 35.5 µM [inhibitor, partial curve, poor fit] | –
21 | CN(NS(=O)(=O)c1ccc([N+](=O)[O-])cc1)c1ccccc1 | inconclusive: 39.8 µM [inhibitor, partial curve] | –
22 | O=C(CSc1n[nH]c(-c2cccnc2)n1)Nc1ccc(Br)cc1 | inconclusive: 50.1 µM [inhibitor, partial curve, poor fit] | –

Row | SMILES | Potency | activity change, negative = inhibition
23 | Cc1cccc(-n2c(SCc3cc(=O)n4ccsc4n3)nc3ccccc3c2=O)c1 | inconclusive: 141 µM [inhibitor, single point] | –
24 | Cc1ccc(C2=NNC(=Nc3ccc(F)cc3)SC2)cc1 | inconclusive: 50.1 µM [inhibitor, partial curve, poor fit] | –
25 | CC(=O)NC(c1ccco1)c1cc(Cl)c2cccnc2c1O (stereo not given) | inconclusive: 3.98 µM [inhibitor, full curve, poor fit] | –
26 | O=C1N[C@@H](Cc2c[nH]c3ccccc23)COC(=O)[C@@H](Cc2ccc(F)cc2)C/C=C\C[C@H]1CC(=O)N(CCO)Cc1ccccc1 | – | inactive: -10.2%
27 | CCO[C@H]1OC(C(=O)Nc2ccccc2)=C[C@@H](c2cn(C(C)=O)c3ccccc23)[C@@H]1CCCO | inconclusive: 100 µM [inhibitor, single point] | –
28 | CCCCCCCC(=O)OCC(=O)[C@@]1(O)CC[C@H]2[C@@H]3CCC4=CC(=O)CC[C@]4(C)[C@H]3[C@@H](O)C[C@@]21C | – | inactive: -11.4%
29 | CC(C)C(=O)N(Cc1ccc(-c2cccc(Cl)c2)o1)C1CCS(=O)(=O)C1 (stereo not given) | inconclusive: 3.55 µM [inhibitor, full curve, poor fit] | –
30 | O=C(NC(Cc1ccccc1)C(=O)N1CCCCCC1)c1ccccc1 (stereo not given) | – | inactive: 13.2%
31 | O=C(O)c1cccc(S(=O)(=O)NNc2ccccc2C(F)(F)F)c1 | active: 15.8 µM | –
32 | COCCCN(C(=S)Nc1ccc(C)cc1Cl)C(C)c1ccncc1 (stereo not given) | inconclusive: 79.4 µM [inhibitor, partial curve, poor fit] | –
33 | C[C@]1(CO)[C@H]2Cc3sc(NC(=O)c4ccc(F)cc4)nc3[C@@H](CC(=O)Nc3ccccc3)[C@]2(C)CC[C@H]1O | inconclusive: 10 µM [inhibitor, full curve, poor fit] | –
34 | O=C1NC(=O)/C(=C\c2ccccc2OCc2ccccc2)S1 | inconclusive: 44.7 µM [inhibitor, full curve, poor fit] | –
35 | Cc1cc(OS(C)(=O)=O)cc2c1C(=O)/C(=C/c1ccccc1F)O2 | inconclusive: 100 µM [inhibitor, single point] | –
36 | CCN(CC(=O)Nc1ccccc1OC)C(=O)c1ccc(-c2cc(Cl)ccc2Cl)o1 | inconclusive: 31.6 µM [inhibitor, partial curve, poor fit] | –
37 | CCOc1ccc(NC(=O)COC(=O)Cc2ccc(S(=O)(=O)N3CCOCC3)s2)cc1 | inconclusive: 3.16 µM [inhibitor, full curve, poor fit] | –
38 | OCCNC(=S)Nc1ccccc1F | inconclusive: 79.4 µM [inhibitor, single point] | –
39 | CCCSc1nnc(-c2cnn(-c3ccccc3)c2-n2cccc2)n1C | inconclusive: 14.1 µM [inhibitor, partial curve, poor fit] | –
40 | CCN(CC)S(=O)(=O)c1cccc(NCc2ccccc2C#N)c1 | – | inactive: -26.6%
41 | O=C(CCl)NN1C(=O)NC(c2ccccc2)(c2ccccc2)C1=O | – | inactive: -14%
42 | COCc1nc(N2CCN(c3ccc(OC)cc3)CC2)ncc1C(=O)O | – | inactive: 2.78%
43 | O=C(CS(=O)(=O)Cc1ccccc1)NCC1CCCO1 (stereo not given) | – | inconclusive: -30.4% [inhibitor]
44 | COC(=O)c1c(Cl)c2n3ccccc3c(C)c(-c3ccccc3)c-2c1C(=O)OC | inconclusive: 5.62 µM [inhibitor, full curve] | –

Whole records from above.
`CCN(CC)S(=O)(=O)c1cccc(NCc2ccccc2C#N)c1` in the list: activity change, negative = inhibition: inactive: -26.6%
`Cc1ccc(C2=NNC(=Nc3ccc(F)cc3)SC2)cc1` in the list: Potency: inconclusive: 50.1 µM [inhibitor, partial curve, poor fit]

(listing goes on)

Row | SMILES | Potency | activity change, negative = inhibition
45 | COc1ccc(N2C(=NC(=O)C3CCCCC3)SC3CS(=O)(=O)CC32)cc1Cl (stereo not given) | inconclusive: 3.16 µM [inhibitor, full curve, poor fit] | –
46 | COc1ccc(-n2c(=O)[nH]c3cccnc32)cc1 | – | inactive: 12.4% [at 176 µM]
47 | Cc1ccc(C(=O)NC2CCCCC2C)c(C)c1 (stereo not given) | – | inactive: -18.2%
48 | CCc1nnc(NC(=O)c2ccc(S(=O)(=O)N3CCCC(C)C3)cc2)o1 (stereo not given) | – | inactive: 0.101%
49 | O=C(Cc1ccc([N+](=O)[O-])cc1)NCc1cccnc1 | – | inactive: -6.3%
50 | N#CCCN(C(=O)COc1ncnc2sc3c(c12)CCCC3)c1ccccc1 | inconclusive: 35.5 µM [inhibitor, partial curve, poor fit] | –
51 | C=C1CCN([C@H](C(=O)NCc2ccc(Cl)cc2)C(C)C)S(=O)(=O)c2ccccc21 | inconclusive: 31.6 µM [inhibitor, partial curve, poor fit] | –
52 | Cc1c(Cl)cccc1NC(=S)NC1CC1 | – | inactive: -0.674%
53 | CC1COc2ccccc2N1S(=O)(=O)c1ccc(Cl)cc1 (stereo not given) | – | inactive: 2.88%
54 | CNC1C2CC3CC(C2)CC1C3 (stereo not given) | inconclusive: 39.8 µM [inhibitor, partial curve, poor fit] | –
55 | Cc1ccc(C(C)(C)NC(=O)C2CCC(=O)N(CCCN3CCOCC3)C2)cc1 (stereo not given) | inconclusive: 3.16 µM [inhibitor, full curve, poor fit] | –
56 | CCn1nc(C(=O)Nc2ccc(N3CCOCC3)cc2)c2ccccc2c1=O | inconclusive: 63.1 µM [inhibitor, partial curve, poor fit] | –
57 | CCOc1cc(CNC(CC)CO)ccc1OCC(=O)Nc1cccc(C(F)(F)F)c1 (stereo not given) | – | inactive: -4.67%
58 | O=C1CCCC2=C1C(c1ccc(O)c(O)c1)Nc1ccc3ncccc3c12 (stereo not given) | inconclusive: 39.8 µM [inhibitor, partial curve] | –
59 | O=C(CSc1oc(-c2ccccc2)nc1S(=O)(=O)c1ccc(Cl)cc1)Nc1ccc(F)cc1 | inconclusive: 44.7 µM [inhibitor, partial curve] | –
60 | COCCN1C(=O)c2ccccc2C(C(=O)Nc2nc3ccccc3[nH]2)C12CCCCC2 (stereo not given) | – | inactive: 4.59%
61 | O=C(CN1CCOCC1)NCC12CC3CC(CC(C3)C1)C2 | inconclusive: 39.8 µM [inhibitor, partial curve, poor fit] | –
62 | COC(=O)c1ccc(NC(=O)C(C)Oc2ccccc2)cc1 (stereo not given) | inconclusive: 0.0794 µM [inhibitor, full curve, poor fit] | –
63 | Cc1ccccc1OCc1nnc(SCc2c(Cl)cccc2Cl)n1C | inconclusive: 56.2 µM [inhibitor, partial curve, poor fit] | –
64 | Oc1ccc(Cl)cc1C=Nc1ccccc1C(F)(F)F | inconclusive: 141 µM [inhibitor, single point] | –
65 | CN(C(=O)c1ccc(NC(=O)Cc2cccc(NC(=O)C3CCCN(C(=O)C4CCC4)C3)c2)cc1)C1CC1 (stereo not given) | inconclusive: 35.5 µM [inhibitor, single point] | –
